Assay results reported in patent US8435962B2, “Triacetyl-3-hydroxyphenyladenosine and its use for regulating blood fat” (Institute of Mataria Medica, Chinese Academy of Medical …, priority 2009, dated 2013).
At least one structure is not confirmed: it was looked up by name or label, or the drawing left a doubt.

Tests used:
hyperlipidemia rats = assay: Effects on hepatic SOD activity and MDA content of hyperlipidemia rats; type: in vivo, rat; details: after administration, in words
From the text: Control animals received an equal volume of vehicle.

hyperlipidemia hamsters = assay: Effects on hepatic SOD activity and MDA concentration in hyperlipidemic hamsters' livers; type: in vivo, hamster; details: in words

Compound	hepatic SOD activity (hyperlipidemia rats)	MDA concentration (hyperlipidemia hamsters)
CC(C)OC(=O)C(C)(C)Oc1ccc(C(=O)c2ccc(Cl)cc2)cc1 [Fenofibrate, reference compound]	significantly increased	lower than the model group
CCC(C)(C)C(=O)O[C@H]1C[C@@H](C)C=C2C=C[C@H](C)[C@H](CC[C@@H]3C[C@@H](O)CC(=O)O3)[C@H]21 [Simvastatin, reference compound]	significantly increased	lower than the model group
